Source: patent US20100221719A1, “Probes for detecting protein nuclear transport and method for detecting and quantifying protein nuclear transport using the same” (priority 2004, published 2010)
Some results were stated once for a whole list of compounds, not compound by compound.

Biological target: T1, androgen receptor (AR) (Homo sapiens, UniProt P10275)
T1 sequence (P10275 1-920): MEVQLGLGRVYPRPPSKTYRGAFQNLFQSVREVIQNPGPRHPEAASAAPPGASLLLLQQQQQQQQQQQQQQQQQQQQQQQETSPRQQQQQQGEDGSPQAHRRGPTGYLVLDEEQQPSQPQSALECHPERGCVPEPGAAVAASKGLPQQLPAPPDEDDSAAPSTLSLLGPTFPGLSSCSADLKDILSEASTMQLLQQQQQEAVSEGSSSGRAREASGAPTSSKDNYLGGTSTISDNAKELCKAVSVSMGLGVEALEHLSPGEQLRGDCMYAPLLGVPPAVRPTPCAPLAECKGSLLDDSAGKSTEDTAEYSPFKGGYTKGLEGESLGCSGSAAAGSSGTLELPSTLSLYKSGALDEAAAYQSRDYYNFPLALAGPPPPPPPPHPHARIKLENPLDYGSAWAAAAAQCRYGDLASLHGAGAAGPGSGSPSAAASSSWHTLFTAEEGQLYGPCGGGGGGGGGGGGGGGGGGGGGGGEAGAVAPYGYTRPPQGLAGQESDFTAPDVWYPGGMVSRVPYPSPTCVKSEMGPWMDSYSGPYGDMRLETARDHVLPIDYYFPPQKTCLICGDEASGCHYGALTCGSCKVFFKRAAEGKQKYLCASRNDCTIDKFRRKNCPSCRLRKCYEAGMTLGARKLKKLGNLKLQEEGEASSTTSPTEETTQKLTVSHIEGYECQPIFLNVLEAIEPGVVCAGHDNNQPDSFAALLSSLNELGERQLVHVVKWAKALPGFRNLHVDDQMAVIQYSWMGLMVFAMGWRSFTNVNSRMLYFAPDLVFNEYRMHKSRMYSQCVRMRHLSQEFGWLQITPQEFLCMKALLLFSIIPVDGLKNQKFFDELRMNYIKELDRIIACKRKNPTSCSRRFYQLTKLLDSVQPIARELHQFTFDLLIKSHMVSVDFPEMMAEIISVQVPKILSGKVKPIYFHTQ
Assay: In vivo imaging of AR nuclear import in mouse brain with implanted cotransfected COS-7 cells
Conditions: i.p. injection, mice, inferred from the luminescence decrease in brain

For `CC12CC1(C)C(=O)N(c1cc(Cl)cc(Cl)c1)C2=O` (stereo not shown) [procymidone], the “time to pass through the blood-brain barrier” value was ≤ 2 h.
